Source: patent US20220370406A1, “METHOD OF TREATING STIMULANT USE DISORDER USING A COMBINATION OF TOPIRAMATE AND PHENTERMINE” (University of Kentucky Research Foundation, priority 2019, published 2022)
At least one compound was matched to its structure with a doubt left.

Test system: participants with cocaine use disorder
Test: Medical safety session: subjective effects questionnaires after intranasal cocaine
Format: in vivo, human
Procedure: Participants completed one, single-blind medical safety session to ensure they could tolerate intranasal cocaine. Intranasal cocaine doses (i.e., 0 [placebo], 10, 20, 40 and 80 mg) were administered in ascending order. Placebo (i.e., 0 mg) was administered at 0900 hours. The subjective-effect questionnaires and cardiovascular measures described below were completed 30 minutes before placebo administration (i.e., 0830 hours), immediately following and at 15-minute intervals for 45 minutes. Subsequent cocaine administrations were separated by 45 minutes.

COC(=O)[C@H]1[C@@H](OC(=O)c2ccccc2)C[C@@H]2CC[C@H]1N2C [Cocaine, cocaine]
scores on the Sedative Subscale (cocaine 80 mg above placebo levels, 100 mg/day topiramate group): significantly increased
scores on the Stimulant Subscale of the Adjective Rating Scale (cocaine 40 or 80 mg above placebo levels, in each of the topiramate groups): significantly increased
